Assay results reported in PMC4763223.
The exact form of at least one protein or probe is not confirmed. For some assays here: No signal at the amounts used counts as a negative.

Columns and labels:
[1] = system: GST-Kat1 C130A/C133A (Kluyveromyces lactis); test: EMSA; conditions: 5 mM Mg2+, 5-40 nM; EMSA: 50 mM Tris-HCl (pH not given), 0.5 mM EDTA, 1 mM DTT, 100 ug/ml BSA, 7 ng/ul ssDNA, 5 mM MgCl2, 60 min on ice (4 C), ~1.4 nM probe; recombinant protein; protein details: N-terminal GST; label: 32P 5' end; letters put together from the description
[2] = system: GST-Kat1 C402A/H405A (Kluyveromyces lactis); test: EMSA; conditions: 5 mM Mg2+, bound normally; EMSA: 50 mM Tris-HCl (pH not given), 0.5 mM EDTA, 1 mM DTT, 100 ug/ml BSA, 7 ng/ul ssDNA, 5 mM MgCl2, 60 min on ice (4 C), ~1.4 nM probe; recombinant protein; protein details: N-terminal GST; label: 32P 5' end; letters put together from the description

## GACATGGAAAGGAAGACATGGTTGGTCTGATTTCATTAACGTTTCAGGTATACATCAAAATTCAGTGAATTTAATTCTGTCGTTTGAAACCAGTTTAGGTGAAATTGGATTAGGTGGTGAATTGATACATAGTAAATAATTACTGGTCCATAATTTTTGTGAATATTTATGCTCTTTATACTATGTAGTTTTTATCCTGAATATTAACGATTGCTCACCTAAATTTCTCGTTTAAAATCCCTATAATGTGAATGGTTTTAGATGATTCATGGTGTTTTTATTAGTGACCGAAATGTTTAGTTTTGGATACTTGATGATAGAATAAAGAGAAGTGTTATGTAAAAAGTGTTAATTCATGTTAAATTCACTACCTTCTTGAGATTCAATTCACACCATTTGATGGTGAATATATCCATCTTAATCAGACGTATACAGAATTCACCTTCAGATGTGTAAGAGTTTTATGTATTCCAATATGTCATTTGTCAATTTGTCTGCATTTCAAACAAAGGAAAAATAAACTTAAGGACATATATCTGAAAATATACCACATAGATACGTCCCTGTTTTAGATACAGC (double strand) [MATa1-MATa2 intergenic probe (577 bp; 579 bp in Fig S5)]
[1]
  binding result: no binding
[2]
  binding result: binds
